Assay results from publication PMC11148080, “Ru(II)-based complexes containing 2-thiouracil derivatives suppress liver cancer stem cells by targeting NF-κB and Akt/mTOR signaling” (Cell Death Discovery, 2024).

Legend:
Assay in all cases: Alamar Blue cytotoxicity
[1] = system: HL-60; assay type: cell-based, human
Experimental: The Alamar Blue assay was used to measure cell viability, as previously described. Adherent cells were seeded in 96-well plates at a density of 7 × 10^3 cells per well, and suspended cells were seeded at 3 × 10^4 cells per well. Drugs were added to each well after overnight incubation for adherent cells or immediately after seeding for suspension cells, and incubation continued for an additional 72 h. […] Four hours (for cell lines) or 24 h (for primary cultures) before the end of incubation, 20 μL of resazurin (30 μM) (Sigma‒Aldrich Co. St. Louis, MO, USA) was added to each well. The absorbance at 570 and 600 nm was measured using a SpectraMax 190 microplate reader (Molecular Devices, Sunnyvale, CA, USA).

[2] = system: A-375; assay type: cell-based, human
Experimental: (§1) The Alamar Blue assay was used to measure cell viability, as previously described. Adherent cells were seeded in 96-well plates at a density of 7 × 10^3 cells per well, and suspended cells were seeded at 3 × 10^4 cells per well. Drugs were added to each well after overnight incubation for adherent cells or immediately after seeding for suspension cells, and incubation continued for an additional 72 h. The positive control included doxorubicin (Laboratorio IMA S.A.I.C., Buenos Aires, Argentina). Four hours (for cell lines) or 24 h (for primary cultures) before the end of incubation, 20 μL of resazurin (30 μM) (Sigma‒Aldrich Co. St. Louis, MO, USA) was added to each well. The absorbance at 570 and 600 nm was measured using a SpectraMax 190 microplate reader (Molecular Devices, Sunnyvale, CA, USA).

[3] = system: U-87 MG; assay type: cell-based, human
Experimental: as §1

[4] = system: K-562; assay type: cell-based, human
Experimental: as §1

[5] = system: A549; assay type: cell-based, human
Experimental: as §1

[6] = system: HCT116; assay type: cell-based, human
Experimental: as §1

[7] = system: CAL 27; assay type: cell-based, human
Experimental: as §1

[8] = system: KG-1a; assay type: cell-based, human
Experimental: as §1

[9] = system: HSC-3; assay type: cell-based, human
Experimental: as §1

[10] = system: Jurkat; assay type: cell-based, human
Experimental: as §1

[11] = system: SCC-25; assay type: cell-based, human
Experimental: as §1

[12] = system: SCC4; assay type: cell-based, human
Experimental: as §1

[13] = system: PANC-1; assay type: cell-based, human
Experimental: as §1

[14] = system: THP-1; assay type: cell-based, human
Experimental: as §1

[15] = system: OVCAR-3; assay type: cell-based, human
Experimental: as §1

[16] = system: HepG2; assay type: cell-based, human
Experimental: as §1

[17] = system: SCC-9; assay type: cell-based, human
Experimental: as §1

[18] = system: MDA-MB-231; assay type: cell-based, human
Experimental: as §1

[19] = system: MCF-7; assay type: cell-based, human
Experimental: as §1

[20] = system: NB4; assay type: cell-based, human
Experimental: as §1

[21] = system: DU 145; assay type: cell-based, human
Experimental: as §1

[22] = system: B16-F10; assay type: cell-based, mouse
Experimental: as §1

[23] = system: 4T1; assay type: cell-based, mouse
Experimental: as §1

Structure (SMILES): F[P-](F)(F)(F)(F)F.O=c1cc[nH]c([S][Ru+])n1.c1ccc(-c2ccccn2)nc1.c1ccc(P(c2ccccc2)c2ccccc2)cc1.c1ccc(P(c2ccccc2)c2ccccc2)cc1 [Complex 1, trans-[Ru(2TU)(PPh3)2(bipy)]PF6]
- Selectivity index ([1]; IC50 BJ/IC50 HL-60): 2.81
- Selectivity index ([1]; IC50 MRC-5/IC50 HL-60): 3.10
- Selectivity index ([1]; IC50 PBMC/IC50 HL-60): 2.49
- Selectivity index ([2]; IC50 BJ/IC50 A-375): 1.48
- Selectivity index ([2]; IC50 MRC-5/IC50 A-375): 5.88
- Selectivity index ([2]; IC50 PBMC/IC50 A-375): 4.73
- Selectivity index ([3]; IC50 BJ/IC50 U-87 MG): 1.74
- Selectivity index ([3]; IC50 MRC-5/IC50 U-87 MG): 5.01
- Selectivity index ([3]; IC50 PBMC/IC50 U-87 MG): 4.03
- Selectivity index ([4]; IC50 BJ/IC50 K-562): 3.33
- Selectivity index ([4]; IC50 MRC-5/IC50 K-562): 2.61
- Selectivity index ([4]; IC50 PBMC/IC50 K-562): 2.10
- Selectivity index ([5]; IC50 MRC-5/IC50 A549): 1.01
- Selectivity index ([5]; IC50 PBMC/IC50 A549): 0.81
- Selectivity index ([6]; IC50 BJ/IC50 HCT116): 2.33
- Selectivity index ([6]; IC50 MRC-5/IC50 HCT116): 3.73
- Selectivity index ([6]; IC50 PBMC/IC50 HCT116): 3.00
- Selectivity index ([7]; IC50 BJ/IC50 CAL 27): 1.31
- Selectivity index ([7]; IC50 MRC-5/IC50 CAL 27): 6.65
- Selectivity index ([7]; IC50 PBMC/IC50 CAL 27): 5.35
- Selectivity index ([8]; IC50 BJ/IC50 KG-1a): 2.35
- Selectivity index ([8]; IC50 MRC-5/IC50 KG-1a): 3.71
- Selectivity index ([8]; IC50 PBMC/IC50 KG-1a): 2.98
- Selectivity index ([9]; IC50 BJ/IC50 HSC-3): 4.11
- Selectivity index ([9]; IC50 MRC-5/IC50 HSC-3): 2.12
- Selectivity index ([9]; IC50 PBMC/IC50 HSC-3): 1.70
- Selectivity index ([10]; IC50 BJ/IC50 Jurkat): 2.49
- Selectivity index ([10]; IC50 MRC-5/IC50 Jurkat): 3.49
- Selectivity index ([10]; IC50 PBMC/IC50 Jurkat): 2.81
- Selectivity index ([11]; IC50 BJ/IC50 SCC-25): 3.74
- Selectivity index ([11]; IC50 MRC-5/IC50 SCC-25): 2.33
- Selectivity index ([11]; IC50 PBMC/IC50 SCC-25): 1.87
- Selectivity index ([12]; IC50 BJ/IC50 SCC4): 2.35
- Selectivity index ([12]; IC50 MRC-5/IC50 SCC4): 3.71
- Selectivity index ([12]; IC50 PBMC/IC50 SCC4): 2.98
- Selectivity index ([13]; IC50 BJ/IC50 PANC-1): 4.65
- Selectivity index ([13]; IC50 MRC-5/IC50 PANC-1): 1.87
- Selectivity index ([13]; IC50 PBMC/IC50 PANC-1): 1.51
- Selectivity index ([14]; IC50 BJ/IC50 THP-1): 2.34
- Selectivity index ([14]; IC50 MRC-5/IC50 THP-1): 3.73
- Selectivity index ([14]; IC50 PBMC/IC50 THP-1): 3.00
- Selectivity index ([15]; IC50 BJ/IC50 OVCAR-3): 1.20
- Selectivity index ([15]; IC50 MRC-5/IC50 OVCAR-3): 7.28
- Selectivity index ([15]; IC50 PBMC/IC50 OVCAR-3): 5.86
- Selectivity index ([16]; IC50 MRC-5/IC50 HepG2): 5.07
- Selectivity index ([16]; IC50 PBMC/IC50 HepG2): 4.08
- Selectivity index ([17]; IC50 BJ/IC50 SCC-9): 2.16
- Selectivity index ([17]; IC50 MRC-5/IC50 SCC-9): 4.02
- Selectivity index ([17]; IC50 PBMC/IC50 SCC-9): 3.23
- Selectivity index ([18]; IC50 BJ/IC50 MDA-MB-231): 1.29
- Selectivity index ([18]; IC50 MRC-5/IC50 MDA-MB-231): 6.76
- Selectivity index ([18]; IC50 PBMC/IC50 MDA-MB-231): 5.43
- Selectivity index ([19]; IC50 BJ/IC50 MCF-7): 4.53
- Selectivity index ([19]; IC50 MRC-5/IC50 MCF-7): 1.92
- Selectivity index ([19]; IC50 PBMC/IC50 MCF-7): 1.55
- Selectivity index ([20]; IC50 BJ/IC50 NB4): 2.36
- Selectivity index ([20]; IC50 MRC-5/IC50 NB4): 3.70
- Selectivity index ([20]; IC50 PBMC/IC50 NB4): 2.97
- Selectivity index ([21]; IC50 BJ/IC50 DU 145): 3.74
- Selectivity index ([21]; IC50 MRC-5/IC50 DU 145): 2.33
- Selectivity index ([21]; IC50 PBMC/IC50 DU 145): 1.87
- Selectivity index ([22]; IC50 BJ/IC50 B16-F10): 1.50
- Selectivity index ([22]; IC50 MRC-5/IC50 B16-F10): 5.82
- Selectivity index ([22]; IC50 PBMC/IC50 B16-F10): 4.68
- Selectivity index ([23]; IC50 BJ/IC50 4T1): 5.77
- Selectivity index ([23]; IC50 MRC-5/IC50 4T1): 1.51
- Selectivity index ([23]; IC50 PBMC/IC50 4T1): 1.21
